In publication doi:10.1101/2020.01.07.896506 (bioRxiv, 2020):
No constants are given. Whether binding was seen depends on the method and setting. In cells and extracts the contact can be indirect. A yes stands for co-enrichment or nearness to the bait. Other partners may have been found. Tags and fused reporters may be left off the sequences shown.

Protein sequences, listed by entry. Tags and fused reporters are not part of them.
UniProt Q39024: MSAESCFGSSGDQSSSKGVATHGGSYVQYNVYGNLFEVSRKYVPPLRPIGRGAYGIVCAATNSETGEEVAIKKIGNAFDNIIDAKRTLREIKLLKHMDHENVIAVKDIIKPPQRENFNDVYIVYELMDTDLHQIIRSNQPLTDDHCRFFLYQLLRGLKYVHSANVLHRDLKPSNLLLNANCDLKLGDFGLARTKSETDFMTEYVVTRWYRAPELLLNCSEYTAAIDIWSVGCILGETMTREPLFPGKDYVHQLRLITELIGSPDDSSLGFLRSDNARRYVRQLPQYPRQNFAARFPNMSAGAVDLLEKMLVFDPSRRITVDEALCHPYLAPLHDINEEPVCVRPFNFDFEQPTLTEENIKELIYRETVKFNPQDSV

T1: GRXS17:FLAG-HA (Arabidopsis thaliana) (UniProt Q9ZPH2)
T1 sequence: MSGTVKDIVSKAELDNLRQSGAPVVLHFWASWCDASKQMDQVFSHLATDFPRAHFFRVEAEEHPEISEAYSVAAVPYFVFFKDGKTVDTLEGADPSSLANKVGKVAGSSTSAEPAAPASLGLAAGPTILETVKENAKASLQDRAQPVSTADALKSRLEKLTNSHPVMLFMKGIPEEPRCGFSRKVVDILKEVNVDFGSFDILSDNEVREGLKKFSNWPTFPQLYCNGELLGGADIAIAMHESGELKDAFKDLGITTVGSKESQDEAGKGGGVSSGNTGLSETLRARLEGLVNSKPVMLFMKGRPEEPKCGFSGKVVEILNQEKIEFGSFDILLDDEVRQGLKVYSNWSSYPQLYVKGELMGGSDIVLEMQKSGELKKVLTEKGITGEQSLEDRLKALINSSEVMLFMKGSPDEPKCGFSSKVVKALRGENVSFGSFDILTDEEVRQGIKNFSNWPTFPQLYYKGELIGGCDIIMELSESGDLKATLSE

B1: BolA2 (protein, UniProt Q9FIC3 1-93)
chain: MVTKEQVEASLTSKLKPIHLEVIDISGGCGSSFEVEVVSEQFEGKRLLERHRMVNAALEEEMKEIHALSIKKAQTPQQWKPPSQDSATLTKDA
B2: MKK2 (protein, UniProt Q9S7U9 1-363)
chain: MKKGGFSNNLKLAIPVAGEQSITKFLTQSGTFKDGDLRVNKDGVRIISQLEPEVLSPIKPADDQLSLSDLDMVKVIGKGSSGVVQLVQHKWTGQFFALKVIQLNIDEAIRKAIAQELKINQSSQCPNLVTSYQSFYDNGAISLILEYMDGGSLADFLKSVKAIPDSYLSAIFRQVLQGLIYLHHDRHIIHRDLKPSNLLINHRGEVKITDFGVSTVMTNTAGLANTFVGTYNYMSPERIVGNKYGNKSDIWSLGLVVLECATGKFPYAPPNQEETWTSVFELMEAIVDQPPPALPSGNFSPELSSFISTCLQKDPNSRSSAKELMEHPFLNKYDYSGINLASYFTDAGSPLATLGNLSGTFSV

What follows are molecules tested against T1, GRXS17:FLAG-HA (Arabidopsis thaliana) (assay: affinity purification with mass spectrometry).

binding, binds:
B1

Target: T1, GRXS17:FLAG-HA (Arabidopsis thaliana)
Experiment: affinity purification with mass spectrometry
Remark: another data set of the same source

binding, binds:
MPK4 (from UniProt Q39024 1-376)
monodehydroascorbate reductase (MDAR)
protein disulfide isomerase (PDIL)
B1
B2
